Experimental data reported in publication PMC12547303.
No constants are given. Whether binding was seen depends on the method and setting. Binding seen in cells or lysates may run through a third protein. Some binding calls cover weakened binding; strength is not graded here. For part of these data: Tags and fused reporters may be left off the sequences shown.

T1: GST fusion of the CNNM2 CNBH domain (582–875) (mouse) (UniProt Q3TWN3)
T1 sequence: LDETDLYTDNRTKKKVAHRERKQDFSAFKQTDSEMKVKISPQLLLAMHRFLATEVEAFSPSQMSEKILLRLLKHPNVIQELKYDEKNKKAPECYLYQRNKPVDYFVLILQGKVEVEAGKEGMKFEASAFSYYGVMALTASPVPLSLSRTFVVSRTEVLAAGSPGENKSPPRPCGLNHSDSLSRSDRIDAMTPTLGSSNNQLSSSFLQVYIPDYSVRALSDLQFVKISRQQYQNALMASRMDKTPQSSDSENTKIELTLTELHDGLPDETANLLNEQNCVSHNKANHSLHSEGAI


Experiments:
[1] = target: HA-tagged TRPM7 (murine) (mouse) (UniProt Q923J1); assay: co-IP; HEK-293T co-transfected for 48 h; HA-TRPM7 immunoprecipitated with anti-HA magnetic beads from mild lysis buffer overnight at 4 °C, washed with PBS 0.1% Triton X-100; FLAG-tagged CNNM2 constructs detected by Western blot; media with 20 mM MgCl2 (Fig. 1B); 1 mM Mg·ATP in the lysis buffer in some samples with SUMO-CBS
[2] = target: T1, GST fusion of the CNNM2 CNBH domain (582–875) (mouse); assay: pull-down; GST fusion proteins bound to glutathione agarose beads incubated with cleared lysates of HEK-293T cells expressing TRPM7 fragments (overnight at 4 °C by the methods, 4 h by the legend); washed with PBS 0.1% Triton X-100; Western blot; 1 mM Mg·ATP in the lysate in some samples with …; only the target purified
[3] = target: GST fusion of the CNNM2 CBS domain (495–582) (mouse) (UniProt Q3TWN3); assay: as above
[4] = target: HA-tagged kinase-inactive TRPM7-K1646R (mouse) (UniProt Q923J1); assay: co-IP; HEK-293T co-transfected for 48 h; HA-TRPM7 immunoprecipitated with anti-HA magnetic beads from mild lysis buffer overnight at 4 °C, washed with PBS 0.1% Triton X-100; FLAG-tagged CNNM2 constructs detected by Western blot; media with 20 mM MgCl2 (Fig. 1B); 1 mM Mg·ATP in the lysis buffer in some samples with SUMO-CBS
[5] = target: TRPM7 (construct of Fig. S3) (mouse) (UniProt Q923J1); assay: co-IP; specificity test of Fig. S3; constructs, cells and conditions not shown

binding [1]	binding [2]	binding [3]	Binder	further results
binds			FLAG-tagged CNNM2 NH2-terminal domain, CNNM2-NTERM (1–402) (domain or fragment, UniProt Q3TWN3 1-402) MIGCGACEPEVKMAGGQAAAALPTWKMAARRSLSARGRGVLQAAAGRLLPLLLLSCCWGAGGCTAAGENEETVIIGLRLEDTNDVSFMEGGALRVSERTRVKLRVYGQNINNETWSRIAFTEHERRRHTPSERGLGGPAPPEPDSGPQRCGIRTSDIIILPHIILNRRTSGIIEIEIKPLRKMEKSKSYYLCTSLSTPALGAGGSGSASGTVGGKGGAGVAGLPPPPWAETTWIYHDGEDTKMIVGEEKKFLLPFWLQVIFISLLLCLSGMFSGLNLGLMALDPMELRIVQNCGTEKEKNYAKRIEPVRRQGNYLLCSLLLGNVLVNTTLTILLDDIAGSGLVAVVVSTIGIVIFGEIVPQAICSRHGLAVGANTIFLTKFFMMMTFPASYPVSKLLDCVLG	
binds			FLAG-tagged CNNM2 lacking the CNBH domain, CNNM2-ΔCNBH (1–582) (domain or fragment, UniProt Q3TWN3 1-582) MIGCGACEPEVKMAGGQAAAALPTWKMAARRSLSARGRGVLQAAAGRLLPLLLLSCCWGAGGCTAAGENEETVIIGLRLEDTNDVSFMEGGALRVSERTRVKLRVYGQNINNETWSRIAFTEHERRRHTPSERGLGGPAPPEPDSGPQRCGIRTSDIIILPHIILNRRTSGIIEIEIKPLRKMEKSKSYYLCTSLSTPALGAGGSGSASGTVGGKGGAGVAGLPPPPWAETTWIYHDGEDTKMIVGEEKKFLLPFWLQVIFISLLLCLSGMFSGLNLGLMALDPMELRIVQNCGTEKEKNYAKRIEPVRRQGNYLLCSLLLGNVLVNTTLTILLDDIAGSGLVAVVVSTIGIVIFGEIVPQAICSRHGLAVGANTIFLTKFFMMMTFPASYPVSKLLDCVLGQEIGTVYNREKLLEMLRVTDPYNDLVKEELNIIQGALELRTKTVEDVMTPLRDCFMITGEAILDFNTMSEIMESGYTRIPVFEGERSNIVDLLFVKDLAFVDPDDCTPLKTITKFYNHPLHFVFNDTKLDAMLEEFKKGKSHLAIVQRVNNEGEGDPFYEVLGIVTLEDVIEEIIKSEIL	
	binds	binds	TRPM7 ST rich region fused to mfGFP, M7-ST (1288–1594) (domain or fragment, UniProt Q923J1 1288-1594) WKKPSAVNTLSSSLPQGDRESNNPFLCNIFMKDEKDPQYNLFGQDLPVIPQRKEFNIPEAGSSCGALFPSAVSPPELRQRRHGVEMLKIFNKNQKLGSSPNSSPHMSSPPTKFSVSTPSQPSCKSHLESTTKDQEPIFYKAAEGDNIEFGAFVGHRDSMDLQRFKETSNKIRELLSNDTPENTLKHVGAAGYSECCKTSTSLHSVQAESCSRRASTEDSPEVDSKAALLPDWLRDRPSNREMPSEGGTLNGLASPFKPVLDTNYYYSAVERNNLMRLSQSIPFVPVPPRGEPVTVYRLEESSPSILN	
	binds	no binding	TRPM7 catalytic kinase domain fused to mfGFP, M7-KIN (1510–1862) (domain or fragment, UniProt Q923J1 1510-1862) DSKAALLPDWLRDRPSNREMPSEGGTLNGLASPFKPVLDTNYYYSAVERNNLMRLSQSIPFVPVPPRGEPVTVYRLEESSPSILNNSMSSWSQLGLCAKIEFLSKEEMGGGLRRAVKVLCTWSEHDILKSGHLYIIKSFLPEVINTWSSIYKEDTVLHLCLREIQQQRAAQKLTFAFNQMKPKSIPYSPRFLEVFLLYCHSAGQWFAVEECMTGEFRKYNNNNGDEIIPTNTLEEIMLAFSHWTYEYTRGELLVLDLQGVGENLTDPSVIKAEEKRSCDMVFGPANLGEDAIKNFRAKHHCNSCCRKLKLPDLKRNDYTPDKIIFPQDESSDLNLQSGNSTKESEATNSVRLM	
binds			FLAG-tagged mouse CNNM2, full length (protein, UniProt Q3TWN3 1-875) MIGCGACEPEVKMAGGQAAAALPTWKMAARRSLSARGRGVLQAAAGRLLPLLLLSCCWGAGGCTAAGENEETVIIGLRLEDTNDVSFMEGGALRVSERTRVKLRVYGQNINNETWSRIAFTEHERRRHTPSERGLGGPAPPEPDSGPQRCGIRTSDIIILPHIILNRRTSGIIEIEIKPLRKMEKSKSYYLCTSLSTPALGAGGSGSASGTVGGKGGAGVAGLPPPPWAETTWIYHDGEDTKMIVGEEKKFLLPFWLQVIFISLLLCLSGMFSGLNLGLMALDPMELRIVQNCGTEKEKNYAKRIEPVRRQGNYLLCSLLLGNVLVNTTLTILLDDIAGSGLVAVVVSTIGIVIFGEIVPQAICSRHGLAVGANTIFLTKFFMMMTFPASYPVSKLLDCVLGQEIGTVYNREKLLEMLRVTDPYNDLVKEELNIIQGALELRTKTVEDVMTPLRDCFMITGEAILDFNTMSEIMESGYTRIPVFEGERSNIVDLLFVKDLAFVDPDDCTPLKTITKFYNHPLHFVFNDTKLDAMLEEFKKGKSHLAIVQRVNNEGEGDPFYEVLGIVTLEDVIEEIIKSEILDETDLYTDNRTKKKVAHRERKQDFSAFKQTDSEMKVKISPQLLLAMHRFLATEVEAFSPSQMSEKILLRLLKHPNVIQELKYDEKNKKAPECYLYQRNKPVDYFVLILQGKVEVEAGKEGMKFEASAFSYYGVMALTASPVPLSLSRTFVVSRTEVLAAGSPGENKSPPRPCGLNHSDSLSRSDRIDAMTPTLGSSNNQLSSSFLQVYIPDYSVRALSDLQFVKISRQQYQNALMASRMDKTPQSSDSENTKIELTLTELHDGLPDETANLLNEQNCVSHNKANHSLHSEGAI	binding [4]: binds
			CNNM2 (construct of Fig. S3) (protein, UniProt Q3TWN3 1-875) MIGCGACEPEVKMAGGQAAAALPTWKMAARRSLSARGRGVLQAAAGRLLPLLLLSCCWGAGGCTAAGENEETVIIGLRLEDTNDVSFMEGGALRVSERTRVKLRVYGQNINNETWSRIAFTEHERRRHTPSERGLGGPAPPEPDSGPQRCGIRTSDIIILPHIILNRRTSGIIEIEIKPLRKMEKSKSYYLCTSLSTPALGAGGSGSASGTVGGKGGAGVAGLPPPPWAETTWIYHDGEDTKMIVGEEKKFLLPFWLQVIFISLLLCLSGMFSGLNLGLMALDPMELRIVQNCGTEKEKNYAKRIEPVRRQGNYLLCSLLLGNVLVNTTLTILLDDIAGSGLVAVVVSTIGIVIFGEIVPQAICSRHGLAVGANTIFLTKFFMMMTFPASYPVSKLLDCVLGQEIGTVYNREKLLEMLRVTDPYNDLVKEELNIIQGALELRTKTVEDVMTPLRDCFMITGEAILDFNTMSEIMESGYTRIPVFEGERSNIVDLLFVKDLAFVDPDDCTPLKTITKFYNHPLHFVFNDTKLDAMLEEFKKGKSHLAIVQRVNNEGEGDPFYEVLGIVTLEDVIEEIIKSEILDETDLYTDNRTKKKVAHRERKQDFSAFKQTDSEMKVKISPQLLLAMHRFLATEVEAFSPSQMSEKILLRLLKHPNVIQELKYDEKNKKAPECYLYQRNKPVDYFVLILQGKVEVEAGKEGMKFEASAFSYYGVMALTASPVPLSLSRTFVVSRTEVLAAGSPGENKSPPRPCGLNHSDSLSRSDRIDAMTPTLGSSNNQLSSSFLQVYIPDYSVRALSDLQFVKISRQQYQNALMASRMDKTPQSSDSENTKIELTLTELHDGLPDETANLLNEQNCVSHNKANHSLHSEGAI	binding [5]: binds
	no binding	binds	TRPM7 NH2-terminal fragment M7-NTERM (1–757) (domain or fragment, UniProt Q923J1 1-757) MSQKSWIESTLTKRECVYIIPSSKDPHRCLPGCQICQQLVRCFCGRLVKQHACFTASLAMKYSDVKLGEHFNQAIEEWSVEKHTEQSPTDAYGVINFQGGSHSYRAKYVRLSYDTKPEIILQLLLKEWQMELPKLVISVHGGMQKFELHPRIKQLLGKGLIKAAVTTGAWILTGGVNTGVAKHVGDALKEHASRSSRKICTIGIAPWGVIENRNDLVGRDVVAPYQTLLNPLSKLNVLNNLHSHFILVDDGTVGKYGAEVRLRRELEKTINQQRIHARIGQGVPVVALIFEGGPNVILTVLEYLQESPPVPVVVCEGTGRAADLLAYIHKQTEEGGNLPDAAEPDIISTIKKTFNFGQSEAVHLFQTMMECMKKKELITVFHIGSEDHQDIDVAILTALLKGTNASAFDQLILTLAWDRVDIAKNHVFVYGQQWLVGSLEQAMLDALVMDRVSFVKLLIENGVSMHKFLTIPRLEELYNTKQGPTNPMLFHLIRDVKQGNLPPGYKITLIDIGLVIEYLMGGTYRCTYTRKRFRLIYNSLGGNNRRSGRNTSSSTPQLRKSHETFGNRADKKEKMRHNHFIKTAQPYRPKMDASMEEGKKKRTKDEIVDIDDPETKRFPYPLNELLIWACLMKRQVMARFLWQHGEESMAKALVACKIYRSMAYEAKQSDLVDDTSEELKQYSNDFGQLAVELLEQSFRQDETMAMKLLTYELKNWSNSTCLKLAVSSRLRPFVAHTCTQMLLSDMWMGRLNMRKNS	
binds			FLAG-tagged CNNM2 lacking the CBS-pair domain, CNNM2-ΔCBS(469–578) (protein, UniProt Q3TWN3) MIGCGACEPEVKMAGGQAAAALPTWKMAARRSLSARGRGVLQAAAGRLLPLLLLSCCWGAGGCTAAGENEETVIIGLRLEDTNDVSFMEGGALRVSERTRVKLRVYGQNINNETWSRIAFTEHERRRHTPSERGLGGPAPPEPDSGPQRCGIRTSDIIILPHIILNRRTSGIIEIEIKPLRKMEKSKSYYLCTSLSTPALGAGGSGSASGTVGGKGGAGVAGLPPPPWAETTWIYHDGEDTKMIVGEEKKFLLPFWLQVIFISLLLCLSGMFSGLNLGLMALDPMELRIVQNCGTEKEKNYAKRIEPVRRQGNYLLCSLLLGNVLVNTTLTILLDDIAGSGLVAVVVSTIGIVIFGEIVPQAICSRHGLAVGANTIFLTKFFMMMTFPASYPVSKLLDCVLGQEIGTVYNREKLLEMLRVTDPYNDLVKEELNIIQGALELRTKTVEDVMTPLRDCFMITGEAILDFNSEILDETDLYTDNRTKKKVAHRERKQDFSAFKQTDSEMKVKISPQLLLAMHRFLATEVEAFSPSQMSEKILLRLLKHPNVIQELKYDEKNKKAPECYLYQRNKPVDYFVLILQGKVEVEAGKEGMKFEASAFSYYGVMALTASPVPLSLSRTFVVSRTEVLAAGSPGENKSPPRPCGLNHSDSLSRSDRIDAMTPTLGSSNNQLSSSFLQVYIPDYSVRALSDLQFVKISRQQYQNALMASRMDKTPQSSDSENTKIELTLTELHDGLPDETANLLNEQNCVSHNKANHSLHSEGAI	
